Reference: paper PMC9500918, “Extended N-Terminal Acetyltransferase Naa50 in Filamentous Fungi Adds to Naa50 Diversity” (International Journal of Molecular Sciences, 2022)

The chains behind the UniProt entries cited, without tags or fusion partners. Where a name states a change or a piece, a line headed by the entry shows the natural chain unless it says otherwise.
UniProt G0S4M4: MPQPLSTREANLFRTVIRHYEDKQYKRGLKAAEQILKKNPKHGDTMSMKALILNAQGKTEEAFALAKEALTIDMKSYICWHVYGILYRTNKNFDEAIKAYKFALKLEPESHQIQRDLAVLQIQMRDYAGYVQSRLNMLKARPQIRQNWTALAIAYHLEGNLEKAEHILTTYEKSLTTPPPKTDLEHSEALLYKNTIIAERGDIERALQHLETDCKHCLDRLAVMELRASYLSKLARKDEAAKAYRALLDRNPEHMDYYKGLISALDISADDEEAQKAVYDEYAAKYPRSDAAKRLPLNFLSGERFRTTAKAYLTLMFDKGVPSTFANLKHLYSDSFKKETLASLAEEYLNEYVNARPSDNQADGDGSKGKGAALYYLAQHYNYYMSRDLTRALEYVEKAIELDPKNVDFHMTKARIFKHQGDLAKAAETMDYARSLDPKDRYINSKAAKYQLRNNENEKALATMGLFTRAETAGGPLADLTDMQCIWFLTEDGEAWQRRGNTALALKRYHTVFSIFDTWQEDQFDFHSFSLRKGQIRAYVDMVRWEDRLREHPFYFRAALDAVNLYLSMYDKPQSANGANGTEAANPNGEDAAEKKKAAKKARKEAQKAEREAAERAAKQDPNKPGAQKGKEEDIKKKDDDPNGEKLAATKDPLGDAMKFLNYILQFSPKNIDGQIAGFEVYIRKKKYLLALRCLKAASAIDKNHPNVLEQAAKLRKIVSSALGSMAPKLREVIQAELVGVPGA
UniProt G0SCY6: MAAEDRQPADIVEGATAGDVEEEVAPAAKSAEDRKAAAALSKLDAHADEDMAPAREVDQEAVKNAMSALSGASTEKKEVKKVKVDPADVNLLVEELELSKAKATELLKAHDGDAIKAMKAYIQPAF
UniProt G0SEF8: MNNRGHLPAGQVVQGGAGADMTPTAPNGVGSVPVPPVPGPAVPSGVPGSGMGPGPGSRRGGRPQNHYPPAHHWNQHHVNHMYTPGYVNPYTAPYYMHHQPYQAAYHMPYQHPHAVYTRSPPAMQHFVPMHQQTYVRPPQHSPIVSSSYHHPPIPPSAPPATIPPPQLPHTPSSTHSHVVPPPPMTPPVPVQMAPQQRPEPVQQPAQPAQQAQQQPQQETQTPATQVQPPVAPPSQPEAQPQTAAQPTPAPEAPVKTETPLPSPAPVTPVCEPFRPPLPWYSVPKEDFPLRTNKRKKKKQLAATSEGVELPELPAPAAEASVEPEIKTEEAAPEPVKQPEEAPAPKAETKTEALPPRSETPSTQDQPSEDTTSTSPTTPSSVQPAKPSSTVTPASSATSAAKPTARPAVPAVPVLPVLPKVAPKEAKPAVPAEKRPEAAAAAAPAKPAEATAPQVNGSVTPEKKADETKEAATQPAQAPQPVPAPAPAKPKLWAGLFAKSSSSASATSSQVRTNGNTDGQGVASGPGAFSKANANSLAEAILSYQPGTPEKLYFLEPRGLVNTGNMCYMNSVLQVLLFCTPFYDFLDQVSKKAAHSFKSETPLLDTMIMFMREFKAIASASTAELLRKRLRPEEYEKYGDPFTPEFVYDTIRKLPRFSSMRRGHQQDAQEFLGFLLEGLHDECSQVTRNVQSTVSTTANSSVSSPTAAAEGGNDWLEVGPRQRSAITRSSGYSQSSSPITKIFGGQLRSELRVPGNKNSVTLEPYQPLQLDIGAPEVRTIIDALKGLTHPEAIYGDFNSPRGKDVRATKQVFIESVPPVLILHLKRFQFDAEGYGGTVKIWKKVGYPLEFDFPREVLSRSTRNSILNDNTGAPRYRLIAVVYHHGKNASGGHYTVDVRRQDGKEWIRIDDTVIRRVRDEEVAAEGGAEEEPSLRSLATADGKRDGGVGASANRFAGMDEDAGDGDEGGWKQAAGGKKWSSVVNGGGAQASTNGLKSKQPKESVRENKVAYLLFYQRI

Target: full-length CtNaa15 with C-terminal Flag-TEV-protein A tag (Chaetomium thermophilum) (UniProt G0S4M4)
Experiment: affinity purification with mass spectrometry; pull-out of protein A-tagged Naa15 or Naa50 from C. thermophilum lysate on IgG Sepharose; TMT LC-MS/MS in triplicates against mock-purified wild-type lysate

binding	Substance
binds	CtHypK (endogenous) (from UniProt G0SCY6)
binds	ubiquitin carboxyl-terminal hydrolase-like protein (from UniProt G0SEF8)

No constants are given. Whether binding was seen depends on the method and setting. In cells and extracts the contact can be indirect. These calls come from enrichment with a bait or labelling near it, and not all partners need be listed.
